Results deposited as PubChem BioAssay AID743121 (NCATS, 2013)

Assay: 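Knock-downs that sensitise breast cancer cells to camptothecin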 (primary screen)
Cells: MDA-MB-231 cells, a human breast cancer line
Knock-down reagent: single siRNA against human genes, 20 nM siRNA (0.8 pmol per well)
Duration: 120 h (drug added 48 h after transfection, read 72 h later)
Conditions: camptothecin 20 nM (about EC30) for 72 h; vehicle 0.1% DMSO in parallel plates
Detection: 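Cell viability by ATP luminescence (CellTiter-Glo) as % of non-targeting siRNA wells, and the log2 ratio of viability without drug over viability with camptothecin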
Direction: log2 vehicle/camptothecin viability: higher = stronger sensitisation to camptothecin; viability with camptothecin and viability without drug: higher = more viable cells
Hit rule: 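Each gene scored by redundant siRNA activity (RSA) over its individual siRNA ratios; a gene is called active at p < 0.001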
The deposit covers about 26,000 reagents; shown is a part drawn at random. In the full data, 167 (0.63%) were called active. 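Calls are per gene from RSA p-values that are not deposited; an individual active-marked siRNA can sensitise only weakly.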 A number with no mark means an inactive call. Reagents against one gene are numbered here.

no.	target gene	reagent no.	log2 vehicle/camptothecin viability	viability with camptothecin (% of control)	viability without drug (% of control)
1	ESYT1	1	0.0534	64	66.4
2	ESYT1	2	-0.609	109	71.3
3	ESYT1	3	-0.344	124	97.5
4	ESYT1	4	-0.113	42.7	39.5
5	RAB3B	1	-0.000489	88.7	88.7
6	RAB3B	2	0.47	56.3	78
7	RAB3B	3	0.307	22.8	28.1
8	RAB3B	4	-0.35	83.5	65.5
9	ANXA1	1	-0.0816	41.7	39.4
10	ANXA1	2	-0.0719	101	96
11	ANXA1	3	0.0747	80.5	84.7
12	ANXA1	4	-0.0762	58.9	55.9
13	MALT1	1	0.391	58.8	77.1
14	MALT1	2	-0.437	55.5	41
15	MALT1	3	0.0129	95.6	96.5
16	MALT1	4	-0.167	77.7	69.2
17	RNGTT	1	-0.296	71.5	58.2
18	RNGTT	2	-0.547	81.7	56
19	RNGTT	3	-0.146	33.9	30.6
20	RNGTT	4	-0.0629	86.1	82.4
21	TIMM8A	1	-0.318	81.3	65.2
22	TIMM8A	2	-0.323	55.6	44.5
23	TIMM8A	3	-0.206	39.2	34
24	TIMM8A	4	-0.216	83.6	72
25	PRKAR2B	1	0.0483	87.2	90.2
26	PRKAR2B	2	-0.0242	48.7	47.9
27	PRKAR2B	3	0.0442	80.6	83.1
28	PRKAR2B	4	0.16	35.6	39.7
29	HOMER3	1	-0.392	104	79.6
30	HOMER3	2	0.0348	52.7	54
31	HOMER3	3	-0.129	77.3	70.7
32	DSTYK	1	-0.0322	101	98.4
33	DSTYK	2	0.0514	72.4	75
34	DSTYK	3	0.209	95.1	110
35	DSTYK	4	0.0268	77.4	78.9
36	LRR1	1	-0.243	71.2	60.1
37	LRR1	2	-0.409	112	84.3
38	LRR1	3	0.249	69.4	82.6
39	LRR1	4	-0.495	105	74.3
40	EMX2	1	0.357	66.2	84.8
41	EMX2	2	0.945	40.8	78.6
42	EMX2	3	-0.178	43.4	38.4
43	EMX2	4	-0.221	66.8	57.3
44	OR5P3	1	-0.624	95.2	61.8
45	OR5P3	2	-0.163	87.9	78.5
46	OR5P3	3	-0.292	118	96.7
47	OR5P3	4	-0.46	84.3	61.3
48	TIMD4	1	-0.813	80.5	45.8
49	TIMD4	2	-0.472	77.9	56.1
50	TIMD4	3	-0.179	63.9	56.4
51	TIMD4	4	0.159	67.3	75.1
52	RTN4RL1	1	-0.292	75.7	61.8
53	RTN4RL1	2	-0.282	63.5	52.3
54	RTN4RL1	3	-0.376	107	82.8
55	RTN4RL1	4	0.062	73	76.2
56	TMEM254	1	-0.343	30.6	24.1
57	TMEM254	2	0.0111	103	103
58	TMEM254	3	0.363	62.4	80.2
59	TMEM254	4	-0.604	40.5	26.7
60	DUSP3	1	0.0548	106	110
61	DUSP3	2	-0.203	45.7	39.7
62	DUSP3	3	-0.274	61.6	50.9
63	DUSP3	4	0.491	62.9	88.4
64	MKRN1	1	-0.244	51.1	43.2
65	MKRN1	2	-0.222	103	88.3
66	MKRN1	3	-0.413	67.4	50.7
67	MKRN1	4	-0.0353	81.1	79.1
68	ROBO3	1	-0.32	88.1	70.5
69	ROBO3	2	-0.516	55.1	38.6
70	ROBO3	3	0.188	66.3	75.5
71	ROBO3	4	-0.119	99.5	91.6
72	CASP7	1	0.2	82.5	94.8
73	CASP7	2	0.0829	77.9	82.5
74	CASP7	3	-0.118	94	86.6
75	MTSS1	1	0.103	53.8	57.8
76	MTSS1	2	-0.0279	83.4	81.8
77	MTSS1	3	-0.317	70.4	56.5
78	MTSS1	4	-0.342	119	94.2
79	GRIN2C	1	0.482	25.7	35.9
80	GRIN2C	2	-0.0173	83.1	82.2
81	GRIN2C	3	-0.114	75.6	69.8
82	GRIN2C	4	-0.526	100	69.6
83	MFAP4	1	-0.173	63.8	56.6
84	MFAP4	2	-0.102	40.3	37.6
85	MFAP4	3	-0.0624	85.8	82.2
86	MFAP4	4	-0.384	46.1	35.4
87	TMEM219	1	-0.158	19.6	17.6
88	TMEM219	2	0.0503	54.3	56.2
89	TMEM219	3	-0.276	73.2	60.5
90	TMEM219	4	-0.225	57.3	49.1

An excerpt taken from the entries so far:
no.	target gene	reagent no.	log2 vehicle/camptothecin viability	viability with camptothecin (% of control)	viability without drug (% of control)
14	MALT1	2	-0.437	55.5	41
15	MALT1	3	0.0129	95.6	96.5
16	MALT1	4	-0.167	77.7	69.2
17	RNGTT	1	-0.296	71.5	58.2
18	RNGTT	2	-0.547	81.7	56
19	RNGTT	3	-0.146	33.9	30.6
20	RNGTT	4	-0.0629	86.1	82.4
21	TIMM8A	1	-0.318	81.3	65.2
22	TIMM8A	2	-0.323	55.6	44.5
23	TIMM8A	3	-0.206	39.2	34
24	TIMM8A	4	-0.216	83.6	72
25	PRKAR2B	1	0.0483	87.2	90.2
26	PRKAR2B	2	-0.0242	48.7	47.9
27	PRKAR2B	3	0.0442	80.6	83.1
